The name of at least one read-out is uncertain. Some compounds share one wording; it may come from a single statement.
Experiments:
Type in all cases: cell-based, Sprague-Dawley rat
[1] = test system: retinal ganglion cells (RGCs); assay: Synapse assay: co-localized Bassoon/Homer synaptic puncta by immunocytochemistry; conditions: for synapse number, TSP1+2+4-KD UCM supplemented with a single purified TSP: 150 ng/ml; for synapse number, TSP1+2+4-KD UCM supplemented with all three pure TSPs: TSP1, TSP2 and TSP4 together, 150 ng/ml each
From the text: (§1) Retinal Ganglion Cells: Retinal ganglion cells (RGCs) were purified by sequential immuno-panning from P7 (postnatal day 7) Sprague-Dawley rat retinas (Charles River, Wilmington, Mass.) of either sex as previously described (Winzeler A, Wang J T., Cold Spring Harbor Protocols, 2013; 643-652). Briefly, retinas were dissected and dissociated with papain (6 U/mL, Worthington, Burlingame, Calif.). Dissociated cells were panned first with Bandeiraea Simplicifolia Lectin I (BSL, Vector laboratories, Burlingame, Calif.) coated petri dishes to remove immune cells, cell debris and fibroblasts. The unbound cells were transferred to a petri dish coated with anti-Thy1 (clone T11D7) antibody for specific isolation of RGCs. The purified RGCs were gently trypsinized and re-plated onto poly-D-Lysine (PDL) and laminin-coated glass coverslips in 24-well plates (35,000 cells/coverslip). RGCs were cultured in a serum-free growth medium containing B27 (Invitrogen, Grand Island, N.Y.), brain-derived neurotrophic factor (BDNF), ciliary neurotrophic factor (CNTF), insulin and forskolin (full recipe of the media can be found in Winzeler and Wang, Cold Spring Harbor Protocols, supra).
Cortical astrocytes (ASCs) were isolated from P1 Sprague-Dawley rat pups of either sexusing standard methods as described in McCarthy K D, de Vellis J., J. Cell Biology, 1980; 85:890-902. For astrocyte co-culture, transwell inserts (BD Biosciences, Franklin Lakes, N.J.) were prepared by seeding 125,000 cortical astrocytes per insert in astrocytes growth media (AGM, described in McCarthy K D, de Vellis J., J. Cell Biology, 1980; 85:890-902). The next day AGM was replaced with RGC growth media and the transwell inserts were transferred into the 24-well plate containing the 4 DIV (days in vitro) RGCs on coverslips.
For co-culture experiments, 25,000 hUTC were seeded into transwell inserts in hUTC growth media a day prior to the co-culture with RGCs. The day of co-culture the hUTC growth media was replaced with RGCs growth media and transwell inserts were transferred into the 24-well plates with 4 DIV RGCs that are grown on glass coverslips.
NHDF were cultured in Fibroblast Basal Medium (FBM, Lonza) using manufacturer's recommendations. For co-culture with RGCs, 150,000 NHDF were seeded into transwell inserts in FBM media a day prior to the co-culture with RGCs. The next day FBM was replaced with RGC growth media and the transwell inserts were transferred into the 24-well plate containing the 4 DIV RGCs on coverslips.
Synapse formation was assessed by immunocytological analyses of the co-localization of pre-(Bassoon) and post-synaptic (Homer) markers, and electrophysiology. 35,000 RGCs were cultured alone on glass coverslips for 4 DIV and transwell inserts or conditioned media were added on 4 DIV. To block TSP-induced synapse formation, 32 μM Gabapentin (GBP) was added together with the conditioned media as described in Eroglu C, et al., Cell, 2009; 139:380-392. The co-cultured cells received fresh growth media on 7 DIV. When conditioned media were used, growth media supplemented with conditioned media were provided at 7 DIV. On 10 DIV, RGCs were fixed with 4% PFA (w/v) and stained for pre- and post-synaptic markers bassoon (mouse anti-bassoon, 1:1000, RRID: AB_2038857, Enzo, Farmingdale, N.Y.) and homer-1 (rabbit anti-homer, 1:500, RRID: AB_1966438, Synaptic Systems, Goettngen, Germany). Alexa-conjugated secondary antibodies (Invitrogen, goat anti rabbit AF-488 (1:1000, RRID: AB_10563748) and goat anti mouse AF-594 (1:500, RRID: AB_10561507)) were used for detection. Coverslips were mounted in Vectashield mounting medium with DAPI (Vector Laboratories) on glass slides (VWR Scientific, Radnor, Pa.). RGCs were imaged on a Zeiss Axioimager M1 Epifluorescence Microscope (Carl Zeiss, Thornwood, N.Y.) using a 63× objective. Morphologically healthy single cells that were at least two cell diameters from their nearest neighbor were identified randomly by DAPI fluorescence. […]

[2] = test system: retinal ganglion cells (RGCs); assay: Neurite outgrowth assay; conditions: 150 ng/ml each
[3] = test system: retinal ganglion cells (RGCs); assay: Neurite outgrowth assay under growth-inhibiting conditions (CSPG, Nogo-A, MBP); conditions: for neurite outgrowth, TSP1+2+4-KD UCM supplemented with purified TSP alone: in the presence of CSPG or Nogo-A
From the text: as §1
To test neurite outgrowth under pathologic (i.e. growth-inhibiting) culture conditions, the RGCs (1,500 cells/coverslip) were seeded onto coverslips that were coated with various concentrations of chondroitin sulfate proteoglycan (CSPG, EMD Millipore, Billerica, Mass.), Nogo-A (R&D Systems, Minneapolis, Minn.) or in the presence of soluble myelin basic protein (MBP, 10 ug/mL, Sigma-Aldrich, St. Louis, Mo.). After 24 hours, neurites were visualized by incubating with CellTracker Red CMPTX dye (Inivtirogen) for 15 mins followed by fixation with 4% PFA (w/v). […] At least 30 cells per condition were imaged and analyzed per experiment and the results presented are the average of 2-3 independent experiments. Neuronal morphology was analyzed using neurite outgrowth application module in Metamorph software (Molecular Devices). […]

Row | Substance | synapse number, TSP1+2+4-KD UCM supplemented with a single purified TSP [1] | synapse number, TSP1+2+4-KD UCM supplemented with all three pure TSPs [1] | neurite outgrowth, TSP1+2+4-KD UCM supplemented with pure TSP1, TSP2 and TSP4 [2] | neurite outgrowth, TSP1+2+4-KD UCM supplemented with purified TSP alone [3] | neurite outgrowth, TSP1+2+4-KD UCM supplemented with pure TSP, in the presence of MBP ([3]; 10 μg/ml soluble MBP)
1 | TSP4: 6-Histidine tagged rat TSP4 expressed in HEK293 cells, Ni-NTA purified | partially rescued | restored the synaptogenic effect | recovered neurite outgrowth-stimulating function of the UCM | rescued the ability of TSP1+2+4-KD UCM to induce neurite outgrowth | –
2 | TSP2: recombinant mouse TSP2 purified from CHO cell conditioned media | partially rescued | restored the synaptogenic effect | recovered neurite outgrowth-stimulating function of the UCM | rescued the ability of TSP1+2+4-KD UCM to induce neurite outgrowth | rescued the outgrowth promoting effect
3 | TSP1: purified recombinant human TSP1 purchased from R&D Systems | partially rescued | restored the synaptogenic effect | recovered neurite outgrowth-stimulating function of the UCM | – | –

From patent US20160158293A1, “Treatment of Ocular Conditions Using Progenitor Cells” (JANSSEN BIOTECH, INC., priority 2014, published 2016)
